Reference: article PMC10719266
No constants are given. Whether binding was seen depends on the method and setting. In cells and extracts the contact can be indirect. Some results given as binding are weak or reduced against the parent protein; the word gives no strength. Where a sequence is shown, tags or fusion partners need not be part of it.

By UniProt entry, the sequences of proteins in these tests, tags left out.
UniProt P19474: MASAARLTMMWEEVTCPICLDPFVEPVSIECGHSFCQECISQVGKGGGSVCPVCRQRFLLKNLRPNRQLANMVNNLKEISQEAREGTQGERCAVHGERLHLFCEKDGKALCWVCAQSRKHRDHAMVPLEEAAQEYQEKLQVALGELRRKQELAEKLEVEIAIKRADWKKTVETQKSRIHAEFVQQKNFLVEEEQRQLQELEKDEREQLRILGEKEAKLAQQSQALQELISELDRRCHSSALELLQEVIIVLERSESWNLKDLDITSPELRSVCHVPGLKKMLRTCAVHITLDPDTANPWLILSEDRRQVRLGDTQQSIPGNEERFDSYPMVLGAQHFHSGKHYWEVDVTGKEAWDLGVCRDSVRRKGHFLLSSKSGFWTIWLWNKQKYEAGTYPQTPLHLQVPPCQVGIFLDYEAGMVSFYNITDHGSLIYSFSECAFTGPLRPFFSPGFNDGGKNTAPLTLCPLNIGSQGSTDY

Target: T1, Flag-tagged FOXD1 (human) (UniProt Q16676)
T1 sequence: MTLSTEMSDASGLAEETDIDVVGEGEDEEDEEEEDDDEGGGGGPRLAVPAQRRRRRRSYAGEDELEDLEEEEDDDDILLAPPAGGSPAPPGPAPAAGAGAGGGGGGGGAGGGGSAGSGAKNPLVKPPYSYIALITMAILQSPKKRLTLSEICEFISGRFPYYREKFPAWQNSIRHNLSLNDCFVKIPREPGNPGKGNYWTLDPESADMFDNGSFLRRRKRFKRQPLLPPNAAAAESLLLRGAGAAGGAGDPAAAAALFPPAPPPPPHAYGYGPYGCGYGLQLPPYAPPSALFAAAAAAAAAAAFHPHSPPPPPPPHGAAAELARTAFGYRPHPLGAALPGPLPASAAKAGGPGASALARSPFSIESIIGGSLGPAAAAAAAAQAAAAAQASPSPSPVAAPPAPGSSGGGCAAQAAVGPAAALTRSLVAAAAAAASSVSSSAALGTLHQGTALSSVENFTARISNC
Experiment: co-IP; HEK293T cells transfected with differentially tagged FOXD1 and TRIM21; RIPA lysis buffer with protease inhibitor; anti-Flag magnetic beads; 3-4 washes with PBST (0.5% Tween 20, pH 7.5); immunoblotting

TRIM21-Myc (from UniProt P19474 1-475)
binding: binds
